To fix the notation:
B1: ABA responsive 17 like protein (ABR17-like), 46 amino acid peptide of pGADT7-rec clone 5 (domain or fragment)
chain: SIVKISVKYHTKGDLVLSDAVRDETKAKGTGLLKAIEGYVLANPDY
B2: galactinol-sucrose galactosyltransferase 2 (GSGT2), 52 amino acid peptide of pGADT7-rec clone 1 (domain or fragment)
chain: GKFGVYSSQHPLQCAVDGIDTDFNYDSETGLTTFSIPVPQEGMYRWSIEIQI
B3: CBL (Calcineurin B-like)-interacting serine/threonine-protein kinase 25 (CIPK25), 88 amino acid peptide of pGADT7-rec clone 4 (domain or fragment)
chain: EIVSKIESAAKSLRFKVGKVKEFKLKLQGMMEGRKGKLAVTAEIYEVAPELAVVEFSKCSGDTFEYVKFFEDDVRPALKDIVWSWQGE

No constants are given. Whether binding was seen depends on the method and setting. A result given as binding can be weak or reduced; the word gives no strength.

Three molecules from publication PMC4689849 can be followed below.

One test addresses 1R-MYB transcription factor (single repeat MYB; TUS38128) from chickpea (chickpea (Cicer arietinum)). Kind of test: two-hybrid; co-transformed Y2HGold cells on QDO/X plates with 0, 1, 2, 5, 10, 15 and 20 mM 3-AT; growth and colour as strength of interaction.
Take B1: the binding entry was “binds”.
Same read-out and setting: in the case of B2 it was “binds”.
As for B3, the binding result is recorded as “binds”.

The target is the same in a further test. Description: two-hybrid; library screen by mating: Y187 with drought stressed chickpea root cDNA library in pGADT7-Rec mated with Y2HGold carrying 1R-MYB in pGBKT7; selection on DDO/X/A, colonies patched on QDO/X/A, 30°C, 3-5 days.
Regarding B1, the binding entry is on record as “binds”.
As to B2, the binding entry is “binds”.
For the molecule B3, the binding entry is recorded as “binds”.

For the next test the target is unchanged. Description: two-hybrid; co-transformation of Y2HGold with the bait clone (1R-MYB in pGBKT7) and the isolated prey clone (pGADT7-Rec), plated on QDO/X/A; empty bait vector as control.
As to B1, the binding result is on record as “binds”.
Take B2: the binding entry is on record as “binds”.
Same read-out and setting: in the case of B3 it was “binds”.

Another test shares this target. Kind of test: two-hybrid; qRT-PCR of the reporter genes HIS3 and ADE2 in co-transformed Y2HGold cells grown in liquid QDO; internal controls TAF10 and UBC6.
As for B1, the binding entry was “binds”.
On the same count and under the same terms, to B2 belongs “binds”.
On the same count and under the same terms, to B3 belongs “binds”.
